Measurements as given in patent publication US4835251A (Genetech, Inc., priority 1986, dated 1989).

Test: peptide synthesis
Details: oxidative folding step, incorporation of B-chain

Substance | oxidative folding yield [%]
H2(B33 A24)A pyro-Glu^1 B Lys^4 B Ala^25 | 9.3
H2(B 33 A24) B Lys^4 B Ala^25 | 20.3
H2(B2-33 A24) B Lys^4 B Ala^25 | 40.3
H2(B2-33 A24)A pyro-Glu^1 B Lys^4 B Ala^25 | 18.9
